Source: publication PMC10499603, “Polθ is phosphorylated by PLK1 to repair double-strand breaks in mitosis” (Nature, 2023)
These are yes or no findings as the source states them, for the method shown. Binding seen in cells or lysates may run through a third protein. A yes stands for co-enrichment or nearness to the bait. Other partners may have been found.

The chains behind the UniProt entries cited, without tags or fusion partners.
UniProt O75417: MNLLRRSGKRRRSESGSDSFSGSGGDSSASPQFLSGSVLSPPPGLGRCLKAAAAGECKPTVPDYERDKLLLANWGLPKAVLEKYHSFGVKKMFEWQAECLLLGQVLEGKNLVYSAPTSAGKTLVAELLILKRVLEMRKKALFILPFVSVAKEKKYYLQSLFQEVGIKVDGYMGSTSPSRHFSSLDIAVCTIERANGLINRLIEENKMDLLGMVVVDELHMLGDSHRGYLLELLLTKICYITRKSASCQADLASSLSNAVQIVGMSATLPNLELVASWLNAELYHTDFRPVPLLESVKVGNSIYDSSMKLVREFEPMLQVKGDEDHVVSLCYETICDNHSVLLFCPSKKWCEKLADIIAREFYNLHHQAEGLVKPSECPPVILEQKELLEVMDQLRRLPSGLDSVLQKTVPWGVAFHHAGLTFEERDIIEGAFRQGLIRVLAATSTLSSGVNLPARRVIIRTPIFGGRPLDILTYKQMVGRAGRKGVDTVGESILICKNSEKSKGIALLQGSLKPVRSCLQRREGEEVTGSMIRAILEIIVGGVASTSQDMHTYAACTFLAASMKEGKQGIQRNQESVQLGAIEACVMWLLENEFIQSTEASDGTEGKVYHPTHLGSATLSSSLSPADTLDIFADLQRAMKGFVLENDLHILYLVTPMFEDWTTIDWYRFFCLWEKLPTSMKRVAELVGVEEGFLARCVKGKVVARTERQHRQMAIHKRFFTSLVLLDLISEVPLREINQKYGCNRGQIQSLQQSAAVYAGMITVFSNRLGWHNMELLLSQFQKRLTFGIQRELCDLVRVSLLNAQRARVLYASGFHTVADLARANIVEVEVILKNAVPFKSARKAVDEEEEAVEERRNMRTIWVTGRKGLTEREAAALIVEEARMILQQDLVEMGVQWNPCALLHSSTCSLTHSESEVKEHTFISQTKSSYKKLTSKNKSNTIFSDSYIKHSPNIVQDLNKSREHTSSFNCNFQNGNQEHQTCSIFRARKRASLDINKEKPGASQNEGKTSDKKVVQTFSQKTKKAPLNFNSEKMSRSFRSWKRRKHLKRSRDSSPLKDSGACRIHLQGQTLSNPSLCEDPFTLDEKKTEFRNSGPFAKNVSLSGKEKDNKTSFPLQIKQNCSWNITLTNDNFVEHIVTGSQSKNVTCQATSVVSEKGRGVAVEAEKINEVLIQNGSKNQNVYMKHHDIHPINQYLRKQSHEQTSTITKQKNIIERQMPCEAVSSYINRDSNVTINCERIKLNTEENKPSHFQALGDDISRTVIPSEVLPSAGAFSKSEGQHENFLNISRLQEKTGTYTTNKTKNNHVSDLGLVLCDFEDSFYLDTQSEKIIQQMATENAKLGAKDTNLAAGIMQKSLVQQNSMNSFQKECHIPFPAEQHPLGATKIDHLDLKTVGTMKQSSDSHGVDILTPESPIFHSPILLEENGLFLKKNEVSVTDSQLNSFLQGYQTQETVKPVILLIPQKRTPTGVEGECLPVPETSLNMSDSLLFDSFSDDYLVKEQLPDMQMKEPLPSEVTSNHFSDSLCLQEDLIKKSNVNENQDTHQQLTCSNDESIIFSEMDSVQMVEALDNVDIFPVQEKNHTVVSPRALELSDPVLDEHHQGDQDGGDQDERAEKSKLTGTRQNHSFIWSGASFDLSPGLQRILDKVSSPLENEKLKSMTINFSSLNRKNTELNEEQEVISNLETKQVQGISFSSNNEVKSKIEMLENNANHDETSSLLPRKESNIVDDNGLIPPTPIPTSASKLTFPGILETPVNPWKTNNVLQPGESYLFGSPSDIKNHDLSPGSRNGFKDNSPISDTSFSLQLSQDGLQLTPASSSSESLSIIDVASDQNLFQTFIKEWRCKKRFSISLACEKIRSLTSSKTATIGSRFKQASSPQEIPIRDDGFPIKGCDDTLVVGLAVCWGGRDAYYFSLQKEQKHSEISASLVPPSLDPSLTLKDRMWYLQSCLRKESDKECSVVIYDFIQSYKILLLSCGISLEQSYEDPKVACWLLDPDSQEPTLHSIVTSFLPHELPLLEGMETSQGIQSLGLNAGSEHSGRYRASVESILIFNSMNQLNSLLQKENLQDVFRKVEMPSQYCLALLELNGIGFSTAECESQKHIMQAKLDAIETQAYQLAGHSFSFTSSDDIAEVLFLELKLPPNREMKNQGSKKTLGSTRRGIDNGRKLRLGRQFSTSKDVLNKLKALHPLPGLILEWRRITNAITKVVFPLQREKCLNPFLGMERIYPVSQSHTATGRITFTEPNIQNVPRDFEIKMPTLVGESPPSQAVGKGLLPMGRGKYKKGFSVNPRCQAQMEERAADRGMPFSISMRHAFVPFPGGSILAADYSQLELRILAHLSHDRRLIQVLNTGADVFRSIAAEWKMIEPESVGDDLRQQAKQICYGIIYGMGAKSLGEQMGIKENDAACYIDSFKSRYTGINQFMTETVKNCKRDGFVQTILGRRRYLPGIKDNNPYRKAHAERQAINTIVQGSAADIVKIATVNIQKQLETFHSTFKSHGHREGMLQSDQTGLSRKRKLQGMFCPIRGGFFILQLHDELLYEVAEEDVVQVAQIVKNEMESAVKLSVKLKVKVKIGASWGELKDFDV
UniProt P51587: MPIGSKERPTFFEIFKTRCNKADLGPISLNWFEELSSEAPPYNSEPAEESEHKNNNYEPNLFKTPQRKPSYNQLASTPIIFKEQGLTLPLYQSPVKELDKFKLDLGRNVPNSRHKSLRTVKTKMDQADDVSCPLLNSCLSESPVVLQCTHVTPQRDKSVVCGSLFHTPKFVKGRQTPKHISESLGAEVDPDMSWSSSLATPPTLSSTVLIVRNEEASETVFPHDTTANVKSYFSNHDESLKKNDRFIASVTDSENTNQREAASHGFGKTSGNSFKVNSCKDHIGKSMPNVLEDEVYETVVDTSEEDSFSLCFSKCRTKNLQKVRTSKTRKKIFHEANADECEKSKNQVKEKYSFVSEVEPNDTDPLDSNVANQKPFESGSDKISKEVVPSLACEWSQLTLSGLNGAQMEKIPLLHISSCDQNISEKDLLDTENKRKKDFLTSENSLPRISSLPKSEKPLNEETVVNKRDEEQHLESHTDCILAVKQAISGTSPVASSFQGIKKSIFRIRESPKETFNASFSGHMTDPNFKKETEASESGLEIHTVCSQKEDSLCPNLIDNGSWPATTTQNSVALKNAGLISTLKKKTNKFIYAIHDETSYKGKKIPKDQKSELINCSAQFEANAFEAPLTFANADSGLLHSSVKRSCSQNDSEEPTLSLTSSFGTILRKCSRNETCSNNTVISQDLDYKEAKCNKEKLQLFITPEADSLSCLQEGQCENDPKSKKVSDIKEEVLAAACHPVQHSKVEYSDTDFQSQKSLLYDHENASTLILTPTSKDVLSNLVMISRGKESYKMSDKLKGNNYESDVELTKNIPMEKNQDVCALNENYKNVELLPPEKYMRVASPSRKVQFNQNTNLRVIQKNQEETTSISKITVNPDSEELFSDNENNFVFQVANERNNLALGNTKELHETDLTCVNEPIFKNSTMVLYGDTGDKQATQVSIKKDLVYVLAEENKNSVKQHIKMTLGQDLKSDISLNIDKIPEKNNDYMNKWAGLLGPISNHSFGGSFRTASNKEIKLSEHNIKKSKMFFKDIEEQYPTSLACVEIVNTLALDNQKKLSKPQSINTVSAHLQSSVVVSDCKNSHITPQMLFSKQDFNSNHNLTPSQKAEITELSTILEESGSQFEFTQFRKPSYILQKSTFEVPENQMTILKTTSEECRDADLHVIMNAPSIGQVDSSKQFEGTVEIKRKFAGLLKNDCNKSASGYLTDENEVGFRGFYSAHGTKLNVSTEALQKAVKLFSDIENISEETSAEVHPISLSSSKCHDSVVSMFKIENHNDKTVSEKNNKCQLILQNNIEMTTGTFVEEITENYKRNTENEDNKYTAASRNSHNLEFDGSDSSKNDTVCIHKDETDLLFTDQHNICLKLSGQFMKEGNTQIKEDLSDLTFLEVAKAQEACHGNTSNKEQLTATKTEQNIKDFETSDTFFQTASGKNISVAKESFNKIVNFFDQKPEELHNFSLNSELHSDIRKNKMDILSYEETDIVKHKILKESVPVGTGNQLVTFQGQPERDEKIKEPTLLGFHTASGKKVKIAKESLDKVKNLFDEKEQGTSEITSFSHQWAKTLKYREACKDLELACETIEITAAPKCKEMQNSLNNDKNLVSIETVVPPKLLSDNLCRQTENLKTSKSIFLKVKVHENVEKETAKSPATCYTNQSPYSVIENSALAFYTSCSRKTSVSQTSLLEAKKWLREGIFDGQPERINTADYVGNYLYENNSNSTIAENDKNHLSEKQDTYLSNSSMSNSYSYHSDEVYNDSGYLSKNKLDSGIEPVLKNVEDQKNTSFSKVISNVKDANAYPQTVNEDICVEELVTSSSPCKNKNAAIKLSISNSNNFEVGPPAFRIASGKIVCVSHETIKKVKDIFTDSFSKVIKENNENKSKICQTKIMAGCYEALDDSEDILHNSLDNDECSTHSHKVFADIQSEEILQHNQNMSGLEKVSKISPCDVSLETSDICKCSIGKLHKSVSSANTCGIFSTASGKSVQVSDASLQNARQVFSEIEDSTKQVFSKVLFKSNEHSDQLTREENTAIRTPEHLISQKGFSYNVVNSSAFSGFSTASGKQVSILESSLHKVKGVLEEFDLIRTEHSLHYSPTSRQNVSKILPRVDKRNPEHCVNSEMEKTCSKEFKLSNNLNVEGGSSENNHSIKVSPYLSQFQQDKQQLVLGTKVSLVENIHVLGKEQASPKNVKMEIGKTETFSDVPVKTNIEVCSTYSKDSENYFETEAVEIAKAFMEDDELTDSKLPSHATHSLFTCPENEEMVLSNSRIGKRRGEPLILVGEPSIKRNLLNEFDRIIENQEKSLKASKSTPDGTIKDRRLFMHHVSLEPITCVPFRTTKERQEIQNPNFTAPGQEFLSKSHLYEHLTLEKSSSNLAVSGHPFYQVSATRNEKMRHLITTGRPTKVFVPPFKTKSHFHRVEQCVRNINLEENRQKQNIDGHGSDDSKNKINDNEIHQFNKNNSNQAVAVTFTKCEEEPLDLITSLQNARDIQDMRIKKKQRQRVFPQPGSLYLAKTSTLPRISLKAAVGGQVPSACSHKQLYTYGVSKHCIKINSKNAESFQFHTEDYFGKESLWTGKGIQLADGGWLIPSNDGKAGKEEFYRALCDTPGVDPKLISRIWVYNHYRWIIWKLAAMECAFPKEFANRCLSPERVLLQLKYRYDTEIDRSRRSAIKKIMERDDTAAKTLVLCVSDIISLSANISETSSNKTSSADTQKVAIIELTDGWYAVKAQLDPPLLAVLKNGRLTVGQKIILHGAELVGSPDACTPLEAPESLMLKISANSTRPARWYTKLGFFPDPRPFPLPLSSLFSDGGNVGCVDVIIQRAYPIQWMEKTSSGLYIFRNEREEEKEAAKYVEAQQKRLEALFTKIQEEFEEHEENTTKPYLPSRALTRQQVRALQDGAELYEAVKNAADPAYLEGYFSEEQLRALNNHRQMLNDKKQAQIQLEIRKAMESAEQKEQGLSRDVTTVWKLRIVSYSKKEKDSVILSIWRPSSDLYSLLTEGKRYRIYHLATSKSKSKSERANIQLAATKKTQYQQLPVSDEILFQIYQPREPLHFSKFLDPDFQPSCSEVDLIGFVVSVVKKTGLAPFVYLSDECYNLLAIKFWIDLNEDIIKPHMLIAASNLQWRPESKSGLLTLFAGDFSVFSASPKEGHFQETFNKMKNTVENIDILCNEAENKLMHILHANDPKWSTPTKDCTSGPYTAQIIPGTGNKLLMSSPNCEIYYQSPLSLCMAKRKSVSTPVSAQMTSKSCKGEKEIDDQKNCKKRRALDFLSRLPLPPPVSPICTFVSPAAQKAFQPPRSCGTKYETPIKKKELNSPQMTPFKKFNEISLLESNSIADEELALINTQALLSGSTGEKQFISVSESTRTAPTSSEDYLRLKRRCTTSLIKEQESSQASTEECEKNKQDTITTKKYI

Target: endogenous NeonGreen-tagged DNA polymerase theta (Polθ) (human (endogenous in HEK-293T)) (UniProt O75417)
Test: affinity purification with mass spectrometry; mNeonGreen-Trap magnetic agarose beads, 5 mg nuclear extract of HEK-293T NeonGreen-POLQ knock-in cells, 2 h at 4 °C; washes with 150 mM and 300 mM NaCl; label-free LC-MS/MS; native HEK extract as control

binding: binds
Substance: BRCA2 (from UniProt P51587 1-3418)
